This passage reports isolated yield results from publication PMC3401907 (Chembiochem, 2012).

The first data set can be described thus: general procedure: Boc solid-phase peptide synthesis; MBHA resin loaded with Boc-PNA-G(Z)-OH; HBTU/DIPEA; DIC/DhBtOH for fluorescein. As to conditions: whole synthesis.
As to “Fl-AEEA-C2DArgC2DArgG2DArgC2DArgT2DArgG2DArgT2DArgC2DArgACACGCACAG-NH2”, the isolated yield turned out to be 2.8%.

For the substance “Fl-AEEA-C5LArgC5LArgG5LArgC5LArgT5LArgG5LArgT5LArgC5LArgACACGCACAG-NH2”, the isolated yield came out at 17%.

In turn, “Fl-AEEA-CC2DArgGC2DArgTG2DArgTC2DArgAC2DArgAC2DArgGC2DArgAC2DArg AG-NH2” showed an isolated yield of 6.8%.

Regarding “Fl-AEEA-CC5LArgGC5LArgTG5LArgTC5LArgAC5LArgAC5LArgGC5LArgAC5LArgAG-NH2”, the isolated yield was determined as 17%.

The substance “H-C2DArgC2DArgG2DArgC2DArgT2DArgG2DArgT2DArgC2DArgACACGCACAG-NH2” returned an isolated yield of 3.2%.

Take “H-CC2DARGGC2DARGTG2DARGTC2DARGAC2DARGAC2DARGGC2DARGAC2DARG AG-NH2”: the isolated yield amounted to 3.6%.

Another data set can be described thus: Boc solid-phase peptide synthesis; MBHA resin loaded with Boc-PNA-G(Z)-OH; HBTU/DIPEA; DIC/DhBtOH for fluorescein. As to conditions: whole synthesis.
For the substance “H-C5LArgC5LArgG5LArgC5LArgT5LArgG5LArgT5LArgC5LArgACACGCACAG-NH2”, the isolated yield was found to be 11%.

Regarding “H-CC5LArgGC5LArgTG5LArgTC5LArgAC5LArgAC5LArgGC5LArgAC5LArgAG-NH2”, the isolated yield is listed as 19%.
